Binding data for 2 molecules are collected here from publication PMC11747444.

Protein sequences, listed by entry. Tags and fused reporters are not part of them.
UniProt P14635: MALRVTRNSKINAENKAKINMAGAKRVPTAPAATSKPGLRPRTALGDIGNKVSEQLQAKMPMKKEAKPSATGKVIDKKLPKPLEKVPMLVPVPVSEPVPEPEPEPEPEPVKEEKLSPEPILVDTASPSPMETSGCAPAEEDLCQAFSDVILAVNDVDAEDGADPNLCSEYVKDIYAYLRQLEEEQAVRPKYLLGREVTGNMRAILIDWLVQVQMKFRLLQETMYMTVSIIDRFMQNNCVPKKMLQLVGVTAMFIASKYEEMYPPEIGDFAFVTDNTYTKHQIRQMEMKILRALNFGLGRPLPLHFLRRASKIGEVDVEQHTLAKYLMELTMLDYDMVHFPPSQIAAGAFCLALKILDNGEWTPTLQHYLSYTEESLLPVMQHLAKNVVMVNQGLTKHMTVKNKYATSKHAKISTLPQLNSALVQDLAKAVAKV

These are yes or no findings as the source states them, for the method shown. Binding seen in cells or lysates may run through a third protein. Here binding means that the protein was enriched with, or labelled near, the bait; the list need not be complete.

This assay concerns the target Flag-tagged wild-type cyclin B1 (human) (UniProt P14635). Nature of the assay: affinity purification with mass spectrometry; α-Flag IP from nocodazole-arrested HeLa cells, uninduced or expressing Flag-cyclin B1^wt or ^mut; in-gel digest, DIA mass spectrometry, three independent experiments.

B1: G2 and S-phase expressed 1 (GTSE1) (protein, UniProt Q9NYZ3 1-739)
chain: MEGGGGRDEPSACRAGDVNMDDPKKEDILLLADEKFDFDLSLSSSSANEDDEVFFGPFGHKERCIAASLELNNPVPEQPPLPTSESPFAWSPLAGEKFVEVYKEAHLLALHIESSSRNQAAQAAKPEDPRSQGVERFIQESKLKINLFEKEKEMKKSPTSLKRETYYLSDSPLLGPPVGEPRLLASSPALPSSGAQARLTRAPGPPHSAHALPRESCTAHAASQAATQRKPGTKLLLPRAASVRGRSIPGAAEKPKKEIPASPSRTKIPAEKESHRDVLPDKPAPGAVNVPAAGSHLGQGKRAIPVPNKLGLKKTLLKAPGSTSNLARKSSSGPVWSGASSACTSPAVGKAKSSEFASIPANSSRPLSNISKSGRMGPAMLRPALPAGPVGASSWQAKRVDVSELAAEQLTAPPSASPTQPQTPEGGGQWLNSSCAWSESSQLNKTRSIRRRDSCLNSKTKVMPTPTNQFKIPKFSIGDSPDSSTPKLSRAQRPQSCTSVGRVTVHSTPVRRSSGPAPQSLLSAWRVSALPTPASRRCSGLPPMTPKTMPRAVGSPLCVPARRRSSEPRKNSAMRTEPTRESNRKTDSRLVDVSPDRGSPPSRVPQALNFSPEESDSTFSKSTATEVAREEAKPGGDAAPSEALLVDIKLEPLAVTPDAASQPLIDLPLIDFCDTPEAHVAVGSESRPLIDLMTNTPDMNKNVAKPSPVVGQLIDLSSPLIQLSPEADKENVDSPLLKF
Turning to B1, the binding entry is listed as “binds”.

B2: MgcRacGAP (RGAP1) (protein, UniProt Q9H0H5 1-632)
chain: MDTMMLNVRNLFEQLVRRVEILSEGNEVQFIQLAKDFEDFRKKWQRTDHELGKYKDLLMKAETERSALDVKLKHARNQVDVEIKRRQRAEADCEKLERQIQLIREMLMCDTSGSIQLSEEQKSALAFLNRGQPSSSNAGNKRLSTIDESGSILSDISFDKTDESLDWDSSLVKTFKLKKREKRRSTSRQFVDGPPGPVKKTRSIGSAVDQGNESIVAKTTVTVPNDGGPIEAVSTIETVPYWTRSRRKTGTLQPWNSDSTLNSRQLEPRTETDSVGTPQSNGGMRLHDFVSKTVIKPESCVPCGKRIKFGKLSLKCRDCRVVSHPECRDRCPLPCIPTLIGTPVKIGEGMLADFVSQTSPMIPSIVVHCVNEIEQRGLTETGLYRISGCDRTVKELKEKFLRVKTVPLLSKVDDIHAICSLLKDFLRNLKEPLLTFRLNRAFMEAAEITDEDNSIAAMYQAVGELPQANRDTLAFLMIHLQRVAQSPHTKMDVANLAKVFGPTIVAHAVPNPDPVTMLQDIKRQPKVVERLLSLPLEYWSQFMMVEQENIDPLHVIENSNAFSTPQTPDIKVSLLGPVTTPEHQLLKTPSSSSLSQRVRSTLTKNTPRFGSKSKSATNLGRQGNFFASPMLK
On to B2, for which the binding result was “binds”.
